Results published in PMC9494907.
Results are given in words; binding and its absence hold for the method and conditions named. In cells and extracts the contact can be indirect. Some results given as binding are weak or reduced against the parent protein; the word gives no strength.

The chains behind the UniProt entries cited, without tags or fusion partners.
UniProt P63104: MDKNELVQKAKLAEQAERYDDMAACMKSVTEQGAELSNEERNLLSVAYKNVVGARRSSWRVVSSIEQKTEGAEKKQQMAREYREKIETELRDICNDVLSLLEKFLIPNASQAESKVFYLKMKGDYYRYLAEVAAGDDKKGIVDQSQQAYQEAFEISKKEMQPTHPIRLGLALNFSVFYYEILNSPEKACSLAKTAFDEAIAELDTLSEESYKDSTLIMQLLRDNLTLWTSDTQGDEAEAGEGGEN
UniProt P46937: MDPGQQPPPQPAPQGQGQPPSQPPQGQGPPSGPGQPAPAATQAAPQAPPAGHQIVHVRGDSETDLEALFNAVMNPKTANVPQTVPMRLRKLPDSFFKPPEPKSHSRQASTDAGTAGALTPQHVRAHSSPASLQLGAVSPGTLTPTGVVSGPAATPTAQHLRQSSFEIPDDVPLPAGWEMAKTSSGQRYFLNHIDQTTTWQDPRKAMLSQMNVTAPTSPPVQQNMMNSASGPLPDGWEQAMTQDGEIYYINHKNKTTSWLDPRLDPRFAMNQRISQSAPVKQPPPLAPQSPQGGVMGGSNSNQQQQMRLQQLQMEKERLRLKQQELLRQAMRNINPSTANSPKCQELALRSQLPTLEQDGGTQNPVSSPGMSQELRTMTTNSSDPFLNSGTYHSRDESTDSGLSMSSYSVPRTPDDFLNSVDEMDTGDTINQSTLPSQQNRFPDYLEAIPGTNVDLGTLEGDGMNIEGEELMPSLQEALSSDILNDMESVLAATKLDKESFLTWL

Target: 14-3-3ζ (human (endogenous in LM3 and Hep-3B)) (UniProt P63104)
Assay: co-IP; IP with 14-3-3ζ antibody or control IgG (IP kit, Thermo Fisher) from circPAK1 stable knockdown LM3 cells (sh-circPAK1 vs sh-NC) and circPAK1 stable overexpression Hep-3B cells; immunoblot with 14-3-3ζ, p-LATS1/2 and YAP antibodies

Substance: YAP (Yes-associated protein) (from UniProt P46937 1-504)
- binding: binds
